Results taken from PMC7139352.
No constants are given. Whether binding was seen depends on the method and setting. Binding seen in cells or lysates may run through a third protein. Some results given as binding are weak or reduced against the parent protein; the word gives no strength. For some assays here: Sequences can lack the tags named with a protein. Blank lines part the entries; values can stand above or below the binder they belong to.

Chains of the proteins cited; added tags and fusions are not shown.
UniProt Q13576: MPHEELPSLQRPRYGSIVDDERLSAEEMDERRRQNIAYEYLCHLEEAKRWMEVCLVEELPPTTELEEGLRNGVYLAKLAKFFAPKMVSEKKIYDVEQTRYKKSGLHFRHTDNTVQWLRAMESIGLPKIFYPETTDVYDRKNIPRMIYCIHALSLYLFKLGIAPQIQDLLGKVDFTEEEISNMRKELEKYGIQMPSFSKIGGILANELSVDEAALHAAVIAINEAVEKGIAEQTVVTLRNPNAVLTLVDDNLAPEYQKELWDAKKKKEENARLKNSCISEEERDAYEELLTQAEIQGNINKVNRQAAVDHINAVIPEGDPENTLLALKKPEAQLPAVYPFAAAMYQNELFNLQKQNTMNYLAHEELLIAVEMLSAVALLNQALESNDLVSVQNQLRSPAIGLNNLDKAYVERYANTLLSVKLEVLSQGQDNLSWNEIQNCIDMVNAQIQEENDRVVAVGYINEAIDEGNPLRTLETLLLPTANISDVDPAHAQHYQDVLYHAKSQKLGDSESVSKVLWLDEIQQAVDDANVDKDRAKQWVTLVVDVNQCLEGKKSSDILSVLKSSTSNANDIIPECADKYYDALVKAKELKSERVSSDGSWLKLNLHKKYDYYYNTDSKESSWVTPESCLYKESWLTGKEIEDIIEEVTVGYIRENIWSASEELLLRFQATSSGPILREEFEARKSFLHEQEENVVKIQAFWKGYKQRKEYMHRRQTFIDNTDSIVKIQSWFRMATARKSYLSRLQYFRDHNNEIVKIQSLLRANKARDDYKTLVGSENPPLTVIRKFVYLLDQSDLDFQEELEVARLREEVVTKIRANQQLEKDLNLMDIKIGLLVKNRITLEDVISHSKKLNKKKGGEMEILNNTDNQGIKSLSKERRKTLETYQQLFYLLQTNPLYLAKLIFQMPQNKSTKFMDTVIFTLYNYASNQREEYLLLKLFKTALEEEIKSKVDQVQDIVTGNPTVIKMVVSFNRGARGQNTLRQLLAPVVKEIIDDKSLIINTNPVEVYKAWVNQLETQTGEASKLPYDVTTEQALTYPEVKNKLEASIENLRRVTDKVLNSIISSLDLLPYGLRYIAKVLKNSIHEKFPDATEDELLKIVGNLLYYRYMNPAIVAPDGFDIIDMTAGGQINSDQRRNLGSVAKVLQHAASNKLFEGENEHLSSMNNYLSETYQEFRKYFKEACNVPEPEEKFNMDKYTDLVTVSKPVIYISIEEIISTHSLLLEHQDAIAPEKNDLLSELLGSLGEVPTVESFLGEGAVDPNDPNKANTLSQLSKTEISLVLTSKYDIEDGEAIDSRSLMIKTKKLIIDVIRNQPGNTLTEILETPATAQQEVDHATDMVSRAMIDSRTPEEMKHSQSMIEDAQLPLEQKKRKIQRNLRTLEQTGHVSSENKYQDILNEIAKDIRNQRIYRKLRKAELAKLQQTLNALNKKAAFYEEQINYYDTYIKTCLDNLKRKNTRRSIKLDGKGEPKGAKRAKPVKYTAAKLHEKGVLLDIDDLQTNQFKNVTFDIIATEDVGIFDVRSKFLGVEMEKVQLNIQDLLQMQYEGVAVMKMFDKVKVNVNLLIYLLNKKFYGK

Key:
[1] = biological target: IQ motif-containing GTPase-activating protein 2 (IQGAP2), endogenous (human (endogenous in SGC-7901 and MGC-803)) (UniProt Q13576); experiment: co-IP; endogenous proteins; lysates of SGC-7901 and MGC-803 (1 mg total protein) with anti-SHIP2 or anti-IQGAP2 antibodies (3 ug) at 4 °C overnight, protein A/G beads, Western blot; IgG as negative control
[2] = biological target: cMyc-IQGAP2 (pCDNA3.1-cMyc-IQGAP2) (human) (UniProt Q13576); experiment: co-IP; tGFP-tagged SHIP2 constructs and cMyc-IQGAP2 co-transfected into HEK293T; lysates immunoprecipitated with anti-cMyc or anti-tGFP antibodies, Western blot

- binding [1]: binds
B1: Src homology 2-containing inositol 5-phosphatase 2 (SHIP2), endogenous (protein, UniProt O15357 1-1258)
chain: MASACGAPGPGGALGSQAPSWYHRDLSRAAAEELLARAGRDGSFLVRDSESVAGAFALCVLYQKHVHTYRILPDGEDFLAVQTSQGVPVRRFQTLGELIGLYAQPNQGLVCALLLPVEGEREPDPPDDRDASDGEDEKPPLPPRSGSTSISAPTGPSSPLPAPETPTAPAAESAPNGLSTVSHDYLKGSYGLDLEAVRGGASHLPHLTRTLATSCRRLHSEVDKVLSGLEILSKVFDQQSSPMVTRLLQQQNLPQTGEQELESLVLKLSVLKDFLSGIQKKALKALQDMSSTAPPAPQPSTRKAKTIPVQAFEVKLDVTLGDLTKIGKSQKFTLSVDVEGGRLVLLRRQRDSQEDWTTFTHDRIRQLIKSQRVQNKLGVVFEKEKDRTQRKDFIFVSARKREAFCQLLQLMKNKHSKQDEPDMISVFIGTWNMGSVPPPKNVTSWFTSKGLGKTLDEVTVTIPHDIYVFGTQENSVGDREWLDLLRGGLKELTDLDYRPIAMQSLWNIKVAVLVKPEHENRISHVSTSSVKTGIANTLGNKGAVGVSFMFNGTSFGFVNCHLTSGNEKTARRNQNYLDILRLLSLGDRQLNAFDISLRFTHLFWFGDLNYRLDMDIQEILNYISRKEFEPLLRVDQLNLEREKHKVFLRFSEEEISFPPTYRYERGSRDTYAWHKQKPTGVRTNVPSWCDRILWKSYPETHIICNSYGCTDDIVTSDHSPVFGTFEVGVTSQFISKKGLSKTSDQAYIEFESIEAIVKTASRTKFFIEFYSTCLEEYKKSFENDAQSSDNINFLKVQWSSRQLPTLKPILADIEYLQDQHLLLTVKSMDGYESYGECVVALKSMIGSTAQQFLTFLSHRGEETGNIRGSMKVRVPTERLGTRERLYEWISIDKDEAGAKSKAPSVSRGSQEPRSGSRKPAFTEASCPLSRLFEEPEKPPPTGRPPAPPRAAPREEPLTPRLKPEGAPEPEGVAAPPPKNSFNNPAYYVLEGVPHQLLPPEPPSPARAPVPSATKNKVAITVPAPQLGHHRHPRVGEGSSSDEESGGTLPPPDFPPPPLPDSAIFLPPSLDPLPGPVVRGRGGAEARGPPPPKAHPRPPLPPGPSPASTFLGEVASGDDRSCSVLQMAKTLSEVDYAPAGPARSALLPGPLELQPPRGLPSDYGRPLSFPPPRIRESIQEDLAEEAPCLQGGRASGLGEAGMSAWLRAIGLERYEEGLVHNGWDDLEFLSDITEEDLEEAGVQDPAHKRLLLDTLQLSK

- binding [2]: binds
B2: tGFP-SHIP2 WT (pCMV-AC-GFP-SHIP2) (protein, UniProt O15357 1-1258)
chain: B1 chain
